From PMC5923425, “Structural analysis of human ARS2 as a platform for co-transcriptional RNA sorting” (Nature Communications, 2018)
These are yes or no findings as the source states them, for the method shown. In cells and extracts the contact can be indirect. Here binding means that the protein was enriched with, or labelled near, the bait; the list need not be complete. Sequences can lack the tags named with a protein.

T1: EGFP–ARS2 wt (human) (UniProt Q9BXP5)
T1 sequence: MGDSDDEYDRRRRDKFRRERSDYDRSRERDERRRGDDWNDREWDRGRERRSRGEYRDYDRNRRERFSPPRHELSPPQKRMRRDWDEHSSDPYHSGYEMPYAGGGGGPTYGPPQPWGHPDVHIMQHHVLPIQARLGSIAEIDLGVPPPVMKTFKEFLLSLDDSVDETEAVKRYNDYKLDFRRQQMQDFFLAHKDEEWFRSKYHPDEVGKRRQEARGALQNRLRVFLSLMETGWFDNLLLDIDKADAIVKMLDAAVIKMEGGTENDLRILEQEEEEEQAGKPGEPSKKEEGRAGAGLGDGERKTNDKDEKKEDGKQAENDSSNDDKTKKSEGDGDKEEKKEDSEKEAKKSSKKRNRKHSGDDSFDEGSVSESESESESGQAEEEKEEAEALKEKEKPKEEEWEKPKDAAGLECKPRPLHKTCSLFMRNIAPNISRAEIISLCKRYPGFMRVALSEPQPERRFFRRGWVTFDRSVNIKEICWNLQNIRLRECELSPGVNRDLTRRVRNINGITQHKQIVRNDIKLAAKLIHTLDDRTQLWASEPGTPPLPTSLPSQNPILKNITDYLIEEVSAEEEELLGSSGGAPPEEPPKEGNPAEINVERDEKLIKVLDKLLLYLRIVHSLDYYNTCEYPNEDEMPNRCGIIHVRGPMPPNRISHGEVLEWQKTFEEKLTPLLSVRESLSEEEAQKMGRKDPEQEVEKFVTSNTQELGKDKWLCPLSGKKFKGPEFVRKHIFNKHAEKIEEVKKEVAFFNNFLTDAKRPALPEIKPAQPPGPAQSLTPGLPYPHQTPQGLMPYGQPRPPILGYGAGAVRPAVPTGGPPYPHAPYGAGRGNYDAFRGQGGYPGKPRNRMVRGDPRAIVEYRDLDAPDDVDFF

B1: CPSF3 (protein, UniProt Q9UKF6 1-684)
chain: MSAIPAEESDQLLIRPLGAGQEVGRSCIILEFKGRKIMLDCGIHPGLEGMDALPYIDLIDPAEIDLLLISHFHLDHCGALPWFLQKTSFKGRTFMTHATKAIYRWLLSDYVKVSNISADDMLYTETDLEESMDKIETINFHEVKEVAGIKFWCYHAGHVLGAAMFMIEIAGVKLLYTGDFSRQEDRHLMAAEIPNIKPDILIIESTYGTHIHEKREEREARFCNTVHDIVNRGGRGLIPVFALGRAQELLLILDEYWQNHPELHDIPIYYASSLAKKCMAVYQTYVNAMNDKIRKQININNPFVFKHISNLKSMDHFDDIGPSVVMASPGMMQSGLSRELFESWCTDKRNGVIIAGYCVEGTLAKHIMSEPEEITTMSGQKLPLKMSVDYISFSAHTDYQQTSEFIRALKPPHVILVHGEQNEMARLKAALIREYEDNDEVHIEVHNPRNTEAVTLNFRGEKLAKVMGFLADKKPEQGQRVSGILVKRNFNYHILSPCDLSNYTDLAMSTVKQTQAIPYTGPFNLLCYQLQKLTGDVEELEIQEKPALKVFKNITVIQEPGMVVLEWLANPSNDMYADTVTTVILEVQSNPKIRKGAVQKVSKKLEMHVYSKRLEIMLQDIFGEDCVSVKDDSILSVTVDGKTANLNLETRTVECEEGSEDDESLREMVELAAQRLYEALTPVH
B2: CPSF7 (protein, UniProt Q8N684 1-471)
chain: MSEGVDLIDIYADEEFNQDPEFNNTDQIDLYDDVLTATSQPSDDRSSSTEPPPPVRQEPSPKPNNKTPAILYTYSGLRNRRAAVYVGSFSWWTTDQQLIQVIRSIGVYDVVELKFAENRANGQSKGYAEVVVASENSVHKLLELLPGKVLNGEKVDVRPATRQNLSQFEAQARKRECVRVPRGGIPPRAHSRDSSDSADGRATPSENLVPSSARVDKPPSVLPYFNRPPSALPLMGLPPPPIPPPPPLSSSFGVPPPPPGIHYQHLMPPPPRLPPHLAVPPPGAIPPALHLNPAFFPPPNATVGPPPDTYMKASAPYNHHGSRDSGPPPSTVSEAEFEDIMKRNRAISSSAISKAVSGASAGDYSDAIETLLTAIAVIKQSRVANDERCRVLISSLKDCLHGIEAKSYSVGASGSSSRKRHRSRERSPSRSRESSRRHRDLLHNEDRHDDYFQERNREHERHRDRERDRHH
B3: THOC1 (protein, UniProt Q96FV9 1-657)
chain: MSPTPPLFSLPEARTRFTKSTREALNNKNIKPLLSTFSQVPGSENEKKCTLDQAFRGILEEEIINHSSCENVLAIISLAIGGVTEGICTASTPFVLLGDVLDCLPLDQCDTIFTFVEKNVATWKSNTFYSAGKNYLLRMCNDLLRRLSKSQNTVFCGRIQLFLARLFPLSEKSGLNLQSQFNLENVTVFNTNEQESTLGQKHTEDREEGMDVEEGEMGDEEAPTTCSIPIDYNLYRKFWSLQDYFRNPVQCYEKISWKTFLKYSEEVLAVFKSYKLDDTQASRKKMEELKTGGEHVYFAKFLTSEKLMDLQLSDSNFRRHILLQYLILFQYLKGQVKFKSSNYVLTDEQSLWIEDTTKSVYQLLSENPPDGERFSKMVEHILNTEENWNSWKNEGCPSFVKERTSDTKPTRIIRKRTAPEDFLGKGPTKKILMGNEELTRLWNLCPDNMEACKSETREHMPTLEEFFEEAIEQADPENMVENEYKAVNNSNYGWRALRLLARRSPHFFQPTNQQFKSLPEYLENMVIKLAKELPPPSEEIKTGEDEDEEDNDALLKENESPDVRRDKPVTGEQIEVFANKLGEQWKILAPYLEMKDSEIRQIECDSEDMKMRAKQLLVAWQDQEGVHATPENLINALNKSGLSDLAESLTNDNETNS
B4: THOC3 (protein, UniProt Q96J01 1-351)
chain: MAVPAAAMGPSALGQSGPGSMAPWCSVSSGPSRYVLGMQELFRGHSKTREFLAHSAKVHSVAWSCDGRRLASGSFDKTASVFLLEKDRLVKENNYRGHGDSVDQLCWHPSNPDLFVTASGDKTIRIWDVRTTKCIATVNTKGENINICWSPDGQTIAVGNKDDVVTFIDAKTHRSKAEEQFKFEVNEISWNNDNNMFFLTNGNGCINILSYPELKPVQSINAHPSNCICIKFDPMGKYFATGSADALVSLWDVDELVCVRCFSRLDWPVRTLSFSHDGKMLASASEDHFIDIAEVETGDKLWEVQCESPTFTVAWHPKRPLLAFACDDKDGKYDSSREAGTVKLFGLPNDS
B5: THOC5 (protein, UniProt Q13769 1-683)
chain: MSSESSKKRKPKVIRSDGAPAEGKRNRSDTEQEGKYYSEEAEVDLRDPGRDYELYKYTCQELQRLMAEIQDLKSRGGKDVAIEIEERRIQSCVHFMTLKKLNRLAHIRLKKGRDQTHEAKQKVDAYHLQLQNLLYEVMHLQKEITKCLEFKSKHEEIDLVSLEEFYKEAPPDISKAEVTMGDPHQQTLARLDWELEQRKRLAEKYRECLSNKEKILKEIEVKKEYLSSLQPRLNSIMQASLPVQEYLFMPFDQAHKQYETARHLPPPLYVLFVQATAYGQACDKTLSVAIEGSVDEAKALFKPPEDSQDDESDSDAEEEQTTKRRRPTLGVQLDDKRKEMLKRHPLSVMLDLKCKDDSVLHLTFYYLMNLNIMTVKAKVTTAMELITPISAGDLLSPDSVLSCLYPGDHGKKTPNPANQYQFDKVGILTLSDYVLELGHPYLWVQKLGGLHFPKEQPQQTVIADHSLSASHMETTMKLLKTRVQSRLALHKQFASLEHGIVPVTSDCQYLFPAKVVSRLVKWVTVAHEDYMELHFTKDIVDAGLAGDTNLYYMALIERGTAKLQAAVVLNPGYSSIPPVFQLCLNWKGEKTNSNDDNIRAMEGEVNVCYKELCGPWPSHQLLTNQLQRLCVLLDVYLETESHDDSVEGPKEFPQEKMCLRLFRGPSRMKPFKYNHPQGFFSHR
B6: THOC6 (protein, UniProt Q86W42 1-341)
chain: MERAVPLAVPLGQTEVFQALQRLHMTIFSQSVSPCGKFLAAGNNYGQIAIFSLSSALSSEAKEESKKPVVTFQAHDGPVYSMVSTDRHLLSAGDGEVKAWLWAEMLKKGCKELWRRQPPYRTSLEVPEINALLLVPKENSLILAGGDCQLHTMDLETGTFTRVLRGHTDYIHCLALRERSPEVLSGGEDGAVRLWDLRTAKEVQTIEVYKHEECSRPHNGRWIGCLATDSDWMVCGGGPALTLWHLRSSTPTTIFPIRAPQKHVTFYQDLILSAGQGRCVNQWQLSGELKAQVPGSSPGLLSLSLNQQPAAPECKVLTAAGNSCRVDVFTNLGYRAFSLSF
B7: NCBP3 (endogenous) (protein, UniProt Q53F19 1-620)
chain: MAAVRGLRVSVKAEAPAGPALGLPSPEAESGVDRGEPEPMEVEEGELEIVPVRRSLKELIPDTSRRYENKAGSFITGIDVTSKEAIEKKEQRAKRFHFRSEVNLAQRNVALDRDMMKKAIPKVRLETIYICGVDEMSTQDVFSYFKEYPPAHIEWLDDTSCNVVWLDEMTATRALINMSSLPAQDKIRSRDASEDKSAEKRKKDKQEDSSDDDEAEEGEVEDENSSDVELDTLSQVEEESLLRNDLRPANKLAKGNRLFMRFATKDDKKELGAARRSQYYMKYGNPNYGGMKGILSNSWKRRYHSRRIQRDVIKKRALIGDDVGLTSYKHRHSGLVNVPEEPIEEEEEEEEEEEEEEEEDQDMDADDRVVVEYHEELPALKQPRERSASRRSSASSSDSDEMDYDLELKMISTPSPKKSMKMTMYADEVESQLKNIRNSMRADSVSSSNIKNRIGNKLPPEKFADVRHLLDEKRQHSRPRPPVSSTKSDIRQRLGKRPHSPEKAFSSNPVVRREPSSDVHSRLGVPRQDSKGLYADTREKKSGNLWTRLGSAPKTKEKNTKKVDHRAPGAEEDDSELQRAWGALIKEKEQSRQKKSRLDNLPSLQIEVSRESSSGSEAES

Target: T1, EGFP–ARS2 wt (human)
Assay: affinity purification with mass spectrometry; EGFP-tagged ARS2 constructs expressed in HEK 293T/17, lysis in 20 mM HEPES pH 7.4, 120 mM NaCl, 0.1% Triton X-100 with RNase H, GFP-Trap beads, TMT labelling, LC–MS/MS; controls EGFP and pcDNA3.1

binding, binds:
B1
B2
B3
B4
B5
B6
B7
